Assay results as given in PMC4650536.
Results are given in words; binding and its absence hold for the method and conditions named. Binding seen in cells or lysates may run through a third protein. Some results given as binding are weak or reduced against the parent protein; the word gives no strength. For part of these data: Sequences can lack the tags named with a protein.

By UniProt entry, the sequences of proteins in these tests, tags left out.
UniProt P45973: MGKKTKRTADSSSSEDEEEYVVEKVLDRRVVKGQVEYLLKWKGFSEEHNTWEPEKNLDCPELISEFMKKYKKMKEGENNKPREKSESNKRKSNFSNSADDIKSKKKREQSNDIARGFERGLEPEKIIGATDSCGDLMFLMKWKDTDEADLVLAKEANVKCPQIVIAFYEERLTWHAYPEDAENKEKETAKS
UniProt Q9BWN1: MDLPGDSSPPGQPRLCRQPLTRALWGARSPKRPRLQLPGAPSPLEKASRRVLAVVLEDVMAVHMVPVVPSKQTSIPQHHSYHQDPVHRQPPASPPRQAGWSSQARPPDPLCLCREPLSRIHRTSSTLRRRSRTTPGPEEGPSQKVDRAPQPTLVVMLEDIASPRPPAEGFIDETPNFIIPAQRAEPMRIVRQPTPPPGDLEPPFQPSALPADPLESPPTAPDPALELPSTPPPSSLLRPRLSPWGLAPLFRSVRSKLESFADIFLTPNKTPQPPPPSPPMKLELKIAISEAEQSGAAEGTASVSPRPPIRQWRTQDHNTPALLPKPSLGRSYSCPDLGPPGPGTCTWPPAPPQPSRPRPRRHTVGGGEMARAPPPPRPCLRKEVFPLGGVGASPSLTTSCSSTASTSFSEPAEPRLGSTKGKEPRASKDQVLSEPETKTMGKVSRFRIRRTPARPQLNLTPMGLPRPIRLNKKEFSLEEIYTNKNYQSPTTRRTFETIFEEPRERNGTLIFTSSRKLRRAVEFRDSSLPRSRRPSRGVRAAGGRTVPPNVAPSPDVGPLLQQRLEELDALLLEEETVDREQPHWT

Columns and labels:
Experiment in all cases: co-IP; HEK293T cells 48 h after transfection, lysed in RIPA buffer (25 mM Tris-HCl pH 7.6, 150 mM NaCl, 1% NP-40, 1% sodium deoxycholate, 0.1% SDS); precipitated with Anti-FLAG M2 magnetic beads; immunoblot
Flag-tagged HP1α = Flag-tagged HP1α (UniProt P45973)
[1] = biological target: Flag-tagged full-length PRR14 (proline rich 14) (human) (UniProt Q9BWN1)
Flag-MDM4 = biological target: T1, Flag-MDM4 (UniProt O15151)
T1 sequence: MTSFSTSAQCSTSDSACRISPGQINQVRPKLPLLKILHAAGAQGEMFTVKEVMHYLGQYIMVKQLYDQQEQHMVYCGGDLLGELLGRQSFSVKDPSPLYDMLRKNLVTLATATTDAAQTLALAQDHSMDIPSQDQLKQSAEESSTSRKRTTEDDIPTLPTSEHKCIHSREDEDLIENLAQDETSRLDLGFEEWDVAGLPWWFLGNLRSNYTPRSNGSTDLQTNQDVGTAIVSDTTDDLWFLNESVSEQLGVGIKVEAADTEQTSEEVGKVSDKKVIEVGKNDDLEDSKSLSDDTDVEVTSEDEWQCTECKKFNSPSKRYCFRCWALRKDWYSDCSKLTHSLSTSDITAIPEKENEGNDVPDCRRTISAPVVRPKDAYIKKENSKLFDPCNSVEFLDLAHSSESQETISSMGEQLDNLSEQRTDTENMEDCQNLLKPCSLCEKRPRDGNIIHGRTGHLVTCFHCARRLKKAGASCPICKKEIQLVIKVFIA

Row | binding (Flag-tagged HP1α) | binding [1] | binding (Flag-MDM4) | Substance
1 | binds | – | – | GFP-PRR14 (from UniProt Q9BWN1 1-585)
2 | – | binds | no binding | heterochromatin protein 1 alpha (HP1α) (from UniProt P45973 1-191)
